Measurements from paper PMC1189073.
Positions count from the first letter of the chain named. These are yes or no findings as the source states them, for the method shown. Binding seen in cells or lysates may run through a third protein. Some results given as binding are weak or reduced against the parent protein; the word gives no strength. Where a sequence is shown, tags or fusion partners need not be part of it.

Tests used:
[1] = biological target: T1, GFP tagged AQP2-F204V (mouse) (UniProt P56402); experiment: co-IP; MDCK cells stably expressing wild-type AQP2, transiently transfected with GFP constructs; membranes dissolved in 4% sodium deoxycholate (37 °C, 1 h), diluted, incubated overnight with GFP antisera and protein A/G sepharose; washed in RIPA buffer; blotted with an antibody against AQP2
T1 sequence: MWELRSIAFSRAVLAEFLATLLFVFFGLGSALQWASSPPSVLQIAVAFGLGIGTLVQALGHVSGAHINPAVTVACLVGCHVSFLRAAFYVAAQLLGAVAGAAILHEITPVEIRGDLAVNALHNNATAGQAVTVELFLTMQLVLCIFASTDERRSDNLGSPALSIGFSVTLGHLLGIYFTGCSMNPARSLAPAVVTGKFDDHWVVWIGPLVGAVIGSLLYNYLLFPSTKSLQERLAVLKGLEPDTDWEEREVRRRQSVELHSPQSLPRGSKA

[2] = biological target: T2, GFP tagged wild-type AQP2 (mouse) (UniProt P56402); experiment: as above
T2 sequence: T1 sequence with V204F

B1: wild-type AQP2 (mouse aquaporin-2) (protein, UniProt P56402 1-271)
chain: T1 sequence with V204F
binding [1]: binds | binding [2]: binds
